This experiment can be described thus: IkB Signaling. Particulars: ABC-DLBCL IkBa-CBG/CBR dual luciferase ratio (green luciferase fused to IkBa over red control in OCI-Ly3 lymphoma cells), 4 h. In outline: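 Luminescence ratio of IκBα-fused green versus native red beetle luciferase in OCI-Ly3 cells, 4 h post-doxycycline with compound; red signal alone, scaled from basal (0%) to zero light (-100%), flagged nonspecific or cytotoxic effects.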
[1] abbreviates: measured here: control luc red channel unless noted.

The list shows a part of the results. Further columns of the screen follow, without active or inactive calls. Compounds called inactive in the main read-out are mostly missing here. The note in brackets gives the kind of curve behind each potency; many fits are weak.

As for `CCN1CCN(c2nc(C)nc3c2sc(=S)n3C)CC1`, the AC50 – broadly, the concentration at which the activity in the assay is half-maximal – under setting [1] is 3.16 µM [rising, full curve, poor fit].
Regarding `COc1cccc(OC)c1C(=O)Nc1ccc(-c2nc3ncccc3o2)cc1`, the AC50 under setting [1] was 5.01 µM [rising, partial curve].
In the case of `O=C(Nc1nc2ccccc2s1)C1CCCN1S(=O)(=O)c1ccc(Cl)cc1` (stereo unspecified), under setting [1], the AC50 was 15.8 µM [falling, partial curve].
On the same count and under the same terms, the value for `Cc1cccc(N(CC(=O)NCCc2ccccc2)S(=O)(=O)c2ccccc2)c1C` was 20 µM [falling, partial curve].
`COc1ccc(CCNC(=O)c2cc3c(=O)n4cccc(C)c4nc3n2C)cc1`: under setting [1], the AC50 was 12.6 µM [falling, partial curve, poor fit].
Still for that read-out and setting: the value for `COc1ccc2c(C)c(CCC(=O)NCc3cccc(Cl)c3)c(=O)oc2c1` was 31.6 µM [falling, single point]; that for `Cc1cccc(CSCCNC(=O)C2CCN(S(=O)(=O)Cc3ccccc3)CC2)c1` was 25.1 µM [falling, single point]; that for `CCCOC(=O)c1ccc(OCC(O)Cn2c(C)nc3ccccc32)cc1` (stereo unspecified) was 15.8 µM [falling, partial curve].
Consider `COc1ccc(NC(=O)CC2Oc3ccc(C)cc3NC2=O)cc1Cl` (stereo unspecified), for which the AC50 under setting [1] is 3.98 µM [rising, full curve].
With `O=C(c1cccs1)c1no[n+]([O-])c1C(=O)c1cccs1`, the AC50 (measured here: IkB-luc green channel) was 3.98 µM [rising, partial curve] and the AC50 (measured here: control luc red channel) is 15.8 µM [falling, partial curve].
With `COc1ccc(N(CC(O)Cn2nnc3ccccc32)S(=O)(=O)c2ccc(C)cc2)cc1` (stereo unspecified), under setting [1], the AC50 was 31.6 µM [falling, single point].
For `Cc1ccc(-n2nc(C(=O)N3CCN(c4cccc(C(F)(F)F)c4)CC3)c(=O)n(C)c2=O)cc1`, under setting [1], the AC50 was 12.6 µM [falling, partial curve].
Still for that read-out and setting: next, `Cc1ccc(CNc2ccc(-c3nc(C(C)C)no3)cc2[N+](=O)[O-])cc1`: 1.58 µM [rising, full curve]; `Cc1ccc(C)c(N2CCN(S(=O)(=O)c3ccc4c(c3)CCC(=O)N4)CC2)c1`: 15.8 µM [falling, partial curve].
As to `Cc1cc(C)c2nc(N3CCCC(C(=O)NCc4cccc(Cl)c4)C3)sc2c1` (stereo unspecified), the AC50 under setting [1] is 7.94 µM [falling, partial curve].
On to `CC(C)CN(CC(C)C)C(=O)C1CCCN(S(=O)(=O)c2ccc3c(c2)oc(=O)n3C)C1` (stereo unspecified), for which the AC50 under setting [1] was 15.8 µM [falling, partial curve].
Turning to `COc1cccc(NC(=O)c2nn(-c3ccc(C)cc3)c(=O)n(C)c2=O)c1`, the AC50 under setting [1] is 1.58 µM [falling, partial curve].
In the case of `CCOc1ccc(C(=O)Nc2cc(NC(=O)c3ccco3)ccc2OC)cc1Br`, the AC50 under setting [1] is 2 µM [rising, full curve].
On to `COc1ccc(-c2nc3cc(NC(=O)Cc4ccc(Cl)cc4)ccc3o2)cc1OC`, for which, under setting [1], the AC50 is 25.1 µM [falling, single point].
The same measure, in the same setting: the value for `Cc1ccsc1CCN1C(=O)N(c2ccccc2)C(=O)C1CC(=O)Nc1ccc(F)cc1` (stereo unspecified) was 25.1 µM [falling, single point]; that for `COc1ccc(CCC(=O)NCc2ccc3c(c2)CCN3C(=O)c2ccc(F)cc2)cc1` was 7.94 µM [rising, single point]; that for `CCOc1cccc2cc(-c3nnc(-c4ccccc4)o3)c(=O)oc12` was 0.0398 µM [falling, full curve].
With `Cc1cccc(C)c1NC(=O)c1ccc2c(c1)N(Cc1cccc(Cl)c1)C(=O)c1ccccc1S2=O` (stereo unspecified), the AC50 under setting [1] was 15.8 µM [falling, single point].
Still for that read-out and setting: the value for `CC(C)CC(=O)Nc1nnc(S(=O)(=O)N2CCCCCC2)s1` was 1.58 µM [rising, partial curve]; that for `Cc1ccc(C(=O)N(Cc2sccc2C)C2CCS(=O)(=O)C2)cc1` (stereo unspecified) was 3.16 µM [rising, partial curve, poor fit].
`COc1ccc(OC)c(-n2nnc3c(sc4nc(C)c(Br)c(C)c43)c2=O)c1`: the AC50 under setting [1] was 10 µM [falling, partial curve].
For the molecule `COc1ccc(Cl)cc1NC(=O)c1cc(C)nc2c1c(C)nn2-c1ccccc1`, the AC50 under setting [1] was 10 µM [falling, partial curve, poor fit].
Take `Cc1cccc(C(=O)Nc2cc3c(cc2N2CCCCC2)n(C)c(=O)c(=O)n3C)c1`: the AC50 under setting [1] is 3.98 µM [rising, partial curve].
Take `O=C(CC1N=C2c3ccccc3N=C(SCc3ccccc3F)N2C1=O)NCCc1ccccc1` (stereo unspecified): the AC50 under setting [1] was 39.8 µM [falling, single point].
As for `CN(C)c1ccc(CN(CC2CCCO2)C(=O)COc2ccccc2Cl)cc1` (stereo unspecified), the AC50 under setting [1] was 25.1 µM [falling, partial curve].
Regarding `CC(C)OCCCNc1ncnc2c1[nH]c1ccc(F)cc12`, the AC50 under setting [1] was 10 µM [falling, partial curve].
Same read-out and setting: the value for `N#Cc1ccc(-c2cccs2)nc1SCc1c(F)cccc1Cl` was 2.51 µM [rising, full curve]; that for `Cc1ccccc1C(=O)N(Cc1ccc(N(C)C)cc1)Cc1ccco1` was 31.6 µM [falling, single point]; that for `CCCN(c1ccc(C(C)C)cc1)S(=O)(=O)c1ccc2c(c1)CCN2C(=O)CC` was 39.8 µM [falling, single point].
As for `O=C(c1cccs1)N(Cc1cccnc1)c1nc2c(Cl)cccc2s1`, the AC50 under setting [1] is 25.1 µM [falling, single point].
As to `O=C(c1ccc(C(F)(F)F)cc1)N1CCC(c2noc(-c3ccc(S(=O)(=O)N4CCCC4)cc3)n2)CC1`, the AC50 under setting [1] was 3.98 µM [falling, full curve].
In the case of `Oc1ccc(-c2nc3ccccn3c2NCc2ccc3c(c2)OCO3)cc1`, under setting [1], the AC50 is 15.8 µM [falling, partial curve].
Same read-out and setting: next, `COc1ccc(-c2noc(CCC(=O)N(C)c3ccccc3C)n2)cc1`: 25.1 µM [falling, partial curve].
Same read-out and setting: next, `O=C(Nc1ccccc1O)c1ccccc1O`: 15.8 µM [falling, partial curve].
Regarding `O=C(C1=C(O)C(=O)N(Cc2ccco2)C1c1cccnc1)c1cc2ccccc2o1` (stereo unspecified), the AC50 under setting [1] is 20 µM [rising, single point] [measured here: IkB-luc green channel].

Values taken from PubChem BioAssay AID445 (National Center for Advancing Translational Sciences (NCATS), 2006).
